Results are given in words; binding and its absence hold for the method and conditions named. Binding seen in cells or lysates may run through a third protein. A yes stands for co-enrichment or nearness to the bait. Other partners may have been found.
Biological target: T1, Tripartite motif-containing 33 (TRIM33) (mouse (endogenous in C57BL/6 BM Lin–FLT3+ cells and in Mutu DC1940 cells)) (UniProt Q99PP7)
T1 sequence: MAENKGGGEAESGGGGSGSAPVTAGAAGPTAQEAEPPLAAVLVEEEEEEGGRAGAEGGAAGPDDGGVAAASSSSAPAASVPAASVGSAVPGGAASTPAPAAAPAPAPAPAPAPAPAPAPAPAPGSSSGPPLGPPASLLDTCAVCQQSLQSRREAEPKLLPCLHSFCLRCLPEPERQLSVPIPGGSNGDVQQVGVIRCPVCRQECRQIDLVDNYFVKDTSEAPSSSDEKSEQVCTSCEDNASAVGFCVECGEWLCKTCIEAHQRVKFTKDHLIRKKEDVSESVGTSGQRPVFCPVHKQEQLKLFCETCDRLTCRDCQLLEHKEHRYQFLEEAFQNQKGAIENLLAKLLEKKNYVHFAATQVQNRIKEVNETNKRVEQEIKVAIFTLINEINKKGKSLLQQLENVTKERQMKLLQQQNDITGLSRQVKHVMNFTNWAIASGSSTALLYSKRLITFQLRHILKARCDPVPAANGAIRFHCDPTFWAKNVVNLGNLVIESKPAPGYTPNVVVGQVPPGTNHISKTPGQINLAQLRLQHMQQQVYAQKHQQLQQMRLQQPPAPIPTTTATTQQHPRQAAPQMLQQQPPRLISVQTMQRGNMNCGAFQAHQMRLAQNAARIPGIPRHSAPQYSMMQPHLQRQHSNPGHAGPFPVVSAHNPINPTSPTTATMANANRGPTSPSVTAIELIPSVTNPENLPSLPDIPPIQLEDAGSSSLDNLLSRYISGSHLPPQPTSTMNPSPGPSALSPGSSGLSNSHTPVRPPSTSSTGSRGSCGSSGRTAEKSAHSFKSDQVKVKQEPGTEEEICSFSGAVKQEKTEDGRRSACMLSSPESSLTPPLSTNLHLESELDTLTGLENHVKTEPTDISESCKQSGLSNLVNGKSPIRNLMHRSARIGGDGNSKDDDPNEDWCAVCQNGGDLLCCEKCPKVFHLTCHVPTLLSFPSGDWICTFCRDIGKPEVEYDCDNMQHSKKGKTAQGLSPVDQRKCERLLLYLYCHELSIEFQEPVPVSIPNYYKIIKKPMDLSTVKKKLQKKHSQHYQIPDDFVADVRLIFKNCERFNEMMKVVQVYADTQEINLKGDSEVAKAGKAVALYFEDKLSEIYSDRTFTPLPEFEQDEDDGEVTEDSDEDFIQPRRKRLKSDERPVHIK
Assay: affinity purification with mass spectrometry; lysates of BM Lin–FLT3+ cells of wild-type C57BL/6 mice incubated with anti-TRIM33 antibody or control IgG at 4 °C overnight, Protein A + G magnetic beads, SDS-PAGE, LC-MS/MS

Protein sequences, listed by entry. Tags and fused reporters are not part of them.
UniProt Q99J95: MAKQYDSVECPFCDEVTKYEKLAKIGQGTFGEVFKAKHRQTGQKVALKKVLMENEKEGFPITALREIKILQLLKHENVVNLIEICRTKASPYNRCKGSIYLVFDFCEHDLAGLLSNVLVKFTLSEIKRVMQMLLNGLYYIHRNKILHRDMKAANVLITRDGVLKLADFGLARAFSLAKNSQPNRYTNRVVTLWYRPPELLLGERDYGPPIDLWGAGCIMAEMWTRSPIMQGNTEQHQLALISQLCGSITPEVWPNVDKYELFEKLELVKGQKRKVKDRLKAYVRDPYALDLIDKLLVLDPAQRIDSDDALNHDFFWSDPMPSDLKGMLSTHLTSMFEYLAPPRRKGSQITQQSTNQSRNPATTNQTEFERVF

binding: binds
Substance: cyclin-dependent kinase 9 (CDK9) (from UniProt Q99J95 1-372)
